Measurements taken from the supplement of paper PMC4604168 (melanoma cell lines).
The list shows a part of the results. Single values are uncertain, as repeats are few or missing.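 Imaging used 1,536-well plates; nuclei positive for cleaved PARP by antibody were divided by total DNA-stained nuclei to yield the apoptosis fraction. Doses for screening kept most cells viable, and cell lines differ markedly in resting and induced cleaved-PARP levels.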

Experiments:
Experiment in all cases: cleaved PARP positive nuclei fraction relative to DMSO control; melanoma cells; higher = more apoptosis
Conditions in all cases: library dose: low library concentration; 72 h
501Mel = tested on: 501Mel
A101D = tested on: A101D
A2058 = tested on: A2058
C32 = tested on: C32
CBRC008 = tested on: CBRC008 (line from a melanoma biopsy)
CBRC014 = tested on: CBRC014 (line from a melanoma biopsy)
CBRC016 = tested on: CBRC016 (line from a melanoma biopsy)
CBRC017 = tested on: CBRC017 (line from a melanoma biopsy)

| SMILES | cleaved PARP positive nuclei fraction (501Mel) | cleaved PARP positive nuclei fraction (A101D) | cleaved PARP positive nuclei fraction (A2058) | cleaved PARP positive nuclei fraction (C32) | cleaved PARP positive nuclei fraction (CBRC008) | cleaved PARP positive nuclei fraction (CBRC014) | cleaved PARP positive nuclei fraction (CBRC016) | cleaved PARP positive nuclei fraction (CBRC017) |
| --- | --- | --- | --- | --- | --- | --- | --- | --- |
| CNC(=O)c1cc(Oc2ccc(NC(=O)Nc3ccc(Cl)c(C(F)(F)F)c3)cc2)ccn1 [sorafenib] + O=C(Oc1ccc([N+](=O)[O-])cc1)N1CCC(C(O)(c2ccc3c(c2)OCO3)c2ccc3c(c2)OCO3)CC1 [JZL184] (first compound 0.4 µM, partner dose 1 µM) | 77.5% | 42.2% | 97.4% | 179% | 87.2% | 92.2% | 62.3% | 185% |
| Cn1cc(C2=C(c3cn(C4CCN(Cc5ccccn5)CC4)c4ccccc34)C(=O)NC2=O)c2ccccc21 [Enzastaurin] + COc1ccc2c(c1)CCC1C2CCC2(C)C(NCCCCCCN3C(=O)C=CC3=O)CCC12 [U73122] (first compound 0.8 µM, partner dose 0.4 µM) | 97.5% | 27.6% | 62% | 163% | 114% | 124% | 88% | 149% |
| COc1ccc(C2=N[C@@H](c3ccc(Cl)cc3)[C@@H](c3ccc(Cl)cc3)N2C(=O)N2CCNC(=O)C2)c(OC(C)C)c1 [Nutlin-3] + Cc1cc(SCc2sc(-c3ccc(C(F)(F)F)c(F)c3)nc2C)ccc1OCC(=O)O [GW0742] (first compound 0.1 µM, partner dose 2 µM) | 66.8% | 33.7% | 32.7% | 41.2% | 324% | 94% | 124% | 114% |
| N.N.[Cl][Pt][Cl] [cisplatin] + COc1cc(N2CCC(N3CCN(C)CC3)CC2)ccc1Nc1ncc(Cl)c(Nc2ccccc2S(=O)(=O)C(C)C)n1 [NVP-TAE684] (first compound 1.6 µM, partner dose 0.08 µM) | 76% | 53.5% | 158% | 41.3% | 152% | 112% | 39.8% | 78.1% |
| Cc1cn(-c2cc(NC(=O)c3ccc(C)c(Nc4nccc(-c5cccnc5)n4)c3)cc(C(F)(F)F)c2)cn1 [nilotinib] + C/C(O)=C(\C#N)C(=O)Nc1cc(Br)ccc1Br [LFM-A13] (first compound 0.2 µM, partner dose 2 µM) | 75.5% | 54.3% | 101% | 110% | 156% | 106% | 124% | 78.8% |
| CC[C@]1(O)C[C@H]2CN(CCc3c([nH]c4ccccc34)[C@@](C(=O)OC)(c3cc4c(cc3OC)N(C=O)[C@H]3[C@@](O)(C(=O)OC)[C@H](OC(C)=O)[C@]5(CC)C=CCN6CC[C@]43[C@@H]65)C2)C1 [vincristine] + Cc1cc(SCc2sc(-c3ccc(C(F)(F)F)c(F)c3)nc2C)ccc1OCC(=O)O [GW0742] (first compound 0.0001 µM, partner dose 2 µM) | 33.4% | 45.9% | 321% | 74.9% | 123% | 112% | 98.6% | 118% |
| CS(=O)(=O)c1ccc(C(=O)Nc2ccc(Cl)c(-c3ccccn3)c2)c(Cl)c1 [vismodegib] + C/C(O)=C(\C#N)C(=O)Nc1cc(Br)ccc1Br [LFM-A13] (first compound 1 µM, partner dose 2 µM) | 154% | 18.8% | 25.3% | 104% | 159% | 48.4% | 45.2% | 88.5% |
| CS(=O)(=O)CCNCc1ccc(-c2ccc3ncnc(Nc4ccc(OCc5cccc(F)c5)c(Cl)c4)c3c2)o1 [lapatinib] + C/C(O)=C(\C#N)C(=O)Nc1cc(Br)ccc1Br [LFM-A13] (first compound 0.8 µM, partner dose 2 µM) | 124% | 46.1% | 128% | 80.5% | 211% | 120% | 64.4% | 123% |
| CS(=O)(=O)CCNCc1ccc(-c2ccc3ncnc(Nc4ccc(OCc5cccc(F)c5)c(Cl)c4)c3c2)o1 [lapatinib] + O=C(Oc1ccc([N+](=O)[O-])cc1)N1CCC(C(O)(c2ccc3c(c2)OCO3)c2ccc3c(c2)OCO3)CC1 [JZL184] (first compound 0.8 µM, partner dose 1 µM) | 30.7% | 45.7% | 74% | 35.5% | 167% | 99.7% | 60.1% | 61.2% |
| C[C@@H](Oc1cc(-c2cnn(C3CCNCC3)c2)cnc1N)c1c(Cl)ccc(F)c1Cl [Crizotinib] + O=C(Oc1ccc([N+](=O)[O-])cc1)N1CCC(C(O)(c2ccc3c(c2)OCO3)c2ccc3c(c2)OCO3)CC1 [JZL184] (first compound 0.2 µM, partner dose 1 µM) | 71.4% | 28.6% | 29.9% | 90.2% | 183% | 151% | 75.3% | 98.5% |
| N.N.[Cl][Pt][Cl] [cisplatin] + Cc1cc([N+](=O)[O-])ccc1NS(=O)(=O)c1cc(Cl)ccc1Cl [FH535] (first compound 1.6 µM, partner dose 1 µM) | 61.5% | 16.1% | 156% | 118% | 759% | 243% | 437% | 589% |
| N.N.[Cl][Pt][Cl] [cisplatin] + O=C(Nc1ccccc1)c1cc([N+](=O)[O-])ccc1Cl [GW9662] (first compound 1.6 µM, partner dose 2 µM) | 165% | 28.5% | 108% | 38.1% | 161% | 102% | 204% | 103% |
| Cn1c(=O)n(-c2ccc(C(C)(C)C#N)cc2)c2c3cc(-c4cnc5ccccc5c4)ccc3ncc21 + Cc1cc(SCc2sc(-c3ccc(C(F)(F)F)c(F)c3)nc2C)ccc1OCC(=O)O [GW0742] (first compound 0.004 µM, partner dose 2 µM) | 64.2% | 14.2% | 120% | 160% | 133% | 178% | 38.7% | 70.5% |
| Cn1cc(C2=C(c3cn(C4CCN(Cc5ccccn5)CC4)c4ccccc34)C(=O)NC2=O)c2ccccc21 [Enzastaurin] + O=S(=O)(c1ccccc1)N(CC(F)(F)F)c1ccc(C(O)(C(F)(F)F)C(F)(F)F)cc1 [T0901317] (first compound 0.8 µM, partner dose 1.4 µM) | 205% | 14.5% | 241% | 258% | 38.1% | 122% | 75.2% | 95.4% |
| CN(c1ncccc1CNc1nc(Nc2ccc3c(c2)CC(=O)N3)ncc1C(F)(F)F)S(C)(=O)=O + Cc1cc(SCc2sc(-c3ccc(C(F)(F)F)c(F)c3)nc2C)ccc1OCC(=O)O [GW0742] (first compound 0.08 µM, partner dose 2 µM) | 103% | 32.2% | 45.1% | 93% | 145% | 196% | 55.8% | 89.5% |
| CC(=O)O[C@@]12CO[C@@H]1C[C@H](O)[C@@]1(C)C(=O)[C@H](O)C3=C(C)[C@@H](OC(=O)[C@H](O)[C@@H](NC(=O)OC(C)(C)C)c4ccccc4)C[C@@](O)([C@@H](OC(=O)c4ccccc4)[C@H]21)C3(C)C [Docetaxel] + O=C(Oc1ccc([N+](=O)[O-])cc1)N1CCC(C(O)(c2ccc3c(c2)OCO3)c2ccc3c(c2)OCO3)CC1 [JZL184] (first compound 0.0001 µM, partner dose 1 µM) | 184% | 54.7% | 5940% | 418% | 349% | 221% | 214% | 132% |
| C[C@]12O[C@H](C[C@]1(O)CO)n1c3ccccc3c3c4c(c5c6ccccc6n2c5c31)CNC4=O [Lestaurtinib] + Oc1cc(-c2nc(-c3ccccc3)[nH]c2-c2ccncc2)ccc1Cl [L779450] (first compound 0.004 µM, partner dose 0.2 µM) | 127% | 25.3% | 107% | 48% | 123% | 94.7% | 96.6% | 76% |
| C[C@]12O[C@H](C[C@]1(O)CO)n1c3ccccc3c3c4c(c5c6ccccc6n2c5c31)CNC4=O [Lestaurtinib] + COc1cc(N2CCC(N3CCN(C)CC3)CC2)ccc1Nc1ncc(Cl)c(Nc2ccccc2S(=O)(=O)C(C)C)n1 [NVP-TAE684] (first compound 0.004 µM, partner dose 0.08 µM) | 216% | 33.7% | 51% | 184% | 52.1% | 93.2% | 57.1% | 77.7% |
| CN1CCN(c2ccc3nc(-c4c(N)c5c(F)cccc5[nH]c4=O)[nH]c3c2)CC1 [Dovitinib] + C/C(O)=C(\C#N)C(=O)Nc1cc(Br)ccc1Br [LFM-A13] (first compound 0.1 µM, partner dose 2 µM) | 77.4% | 37.4% | 38.5% | 118% | 48.2% | 95% | 55.7% | 68.1% |
| CN1CCN(c2ccc3nc(-c4c(N)c5c(F)cccc5[nH]c4=O)[nH]c3c2)CC1 [Dovitinib] + O=C(Oc1ccc([N+](=O)[O-])cc1)N1CCC(C(O)(c2ccc3c(c2)OCO3)c2ccc3c(c2)OCO3)CC1 [JZL184] (first compound 0.1 µM, partner dose 1 µM) | 99.4% | 46.2% | 89.4% | 168% | 151% | 97.7% | 51.9% | 97.5% |
| OCc1c[nH]c2ccccc12 [Indole-3-carbinol] + Cc1cc(SCc2sc(-c3ccc(C(F)(F)F)c(F)c3)nc2C)ccc1OCC(=O)O [GW0742] (first compound 0.8 µM, partner dose 2 µM) | 78.5% | 15.4% | 151% | 71.9% | 202% | 96.6% | 42.1% | 89.5% |
| C[C@]12O[C@H](C[C@]1(O)CO)n1c3ccccc3c3c4c(c5c6ccccc6n2c5c31)CNC4=O [Lestaurtinib] + CC(C)CCN1c2nc(Nc3cc(F)c(O)c(F)c3)ncc2N(C)C(=O)C1C [BID1870] (first compound 0.004 µM, partner dose 0.2 µM) | 77.9% | 34.2% | 117% | 123% | 156% | 90.9% | 64.6% | 67.9% |
| C[C@@H](Oc1cc(-c2cnn(C3CCNCC3)c2)cnc1N)c1c(Cl)ccc(F)c1Cl [Crizotinib] + Cc1cc(SCc2sc(-c3ccc(C(F)(F)F)c(F)c3)nc2C)ccc1OCC(=O)O [GW0742] (first compound 0.2 µM, partner dose 2 µM) | 91.1% | 22.4% | 115% | 132% | 107% | 125% | 67.5% | 83.4% |
| Cn1cc(C2=C(c3cn(C4CCN(Cc5ccccn5)CC4)c4ccccc34)C(=O)NC2=O)c2ccccc21 [Enzastaurin] + Oc1cc(-c2nc(-c3ccccc3)[nH]c2-c2ccncc2)ccc1Cl [L779450] (first compound 0.8 µM, partner dose 0.2 µM) | 107% | 51.9% | 130% | 114% | 48.4% | 90.1% | 71.9% | 786% |

Complete entries from above. Values in the order: cleaved PARP positive nuclei fraction (501Mel) | cleaved PARP positive nuclei fraction (A101D) | cleaved PARP positive nuclei fraction (A2058) | cleaved PARP positive nuclei fraction (C32) | cleaved PARP positive nuclei fraction (CBRC008) | cleaved PARP positive nuclei fraction (CBRC014) | cleaved PARP positive nuclei fraction (CBRC016) | cleaved PARP positive nuclei fraction (CBRC017)
OCc1c[nH]c2ccccc12 [Indole-3-carbinol] + Cc1cc(SCc2sc(-c3ccc(C(F)(F)F)c(F)c3)nc2C)ccc1OCC(=O)O [GW0742] (first compound 0.8 µM, partner dose 2 µM) as listed: 78.5% | 15.4% | 151% | 71.9% | 202% | 96.6% | 42.1% | 89.5%
COc1ccc(C2=N[C@@H](c3ccc(Cl)cc3)[C@@H](c3ccc(Cl)cc3)N2C(=O)N2CCNC(=O)C2)c(OC(C)C)c1 [Nutlin-3] + Cc1cc(SCc2sc(-c3ccc(C(F)(F)F)c(F)c3)nc2C)ccc1OCC(=O)O [GW0742] (first compound 0.1 µM, partner dose 2 µM) as listed: 66.8% | 33.7% | 32.7% | 41.2% | 324% | 94% | 124% | 114%
